A short description of this data set: general procedure: Fmoc solid-phase peptide synthesis; Chem-Matrix Rink amide resin (~0.5 mmol/g); HBTU/DIEA and DIC/oxyma pure (double coupling). The settings on record: whole synthesis.

As to FSA-8Aoc-SKPIQT-NH2, the isolated yield was found to be 70% and the “final HPLC purity” value amounted to 95%.
Turning to VGAG-8Aoc-FPIQT-NH2, the isolated yield stood at 62% and the “final HPLC purity” value was found to be 99%.

These data come from US20200291444A1 (Oxford University Innovation LTD, priority 2017, published 2020).
